In the supplement of paper PMC12823440, “Inhibitors supercharge kinase turnover through native proteolytic circuits” (Nature, 2025):
Where a name gives a salt, the structure may show the parent alone. Some of the results follow. Hit calls seldom repeat between salt and free forms of one compound.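 Kinases were expressed as nanoluciferase fusions in K562 cells and luminescence was read every 4 h between 2 and 18 h as percent of control, DMSO set to 100% and a positive control to 0%. A time point counts as decreased when the signal drops significantly (2 sigma). The hit call is the authors' own, does not follow from the count of time points alone, and its rule is not shown.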

Protein sequences, listed by entry. Tags and fused reporters are not part of them. Lines headed by an entry give the natural chain unless they say otherwise; changes in a name come on top.
UniProt Q15303, whole entry R711C: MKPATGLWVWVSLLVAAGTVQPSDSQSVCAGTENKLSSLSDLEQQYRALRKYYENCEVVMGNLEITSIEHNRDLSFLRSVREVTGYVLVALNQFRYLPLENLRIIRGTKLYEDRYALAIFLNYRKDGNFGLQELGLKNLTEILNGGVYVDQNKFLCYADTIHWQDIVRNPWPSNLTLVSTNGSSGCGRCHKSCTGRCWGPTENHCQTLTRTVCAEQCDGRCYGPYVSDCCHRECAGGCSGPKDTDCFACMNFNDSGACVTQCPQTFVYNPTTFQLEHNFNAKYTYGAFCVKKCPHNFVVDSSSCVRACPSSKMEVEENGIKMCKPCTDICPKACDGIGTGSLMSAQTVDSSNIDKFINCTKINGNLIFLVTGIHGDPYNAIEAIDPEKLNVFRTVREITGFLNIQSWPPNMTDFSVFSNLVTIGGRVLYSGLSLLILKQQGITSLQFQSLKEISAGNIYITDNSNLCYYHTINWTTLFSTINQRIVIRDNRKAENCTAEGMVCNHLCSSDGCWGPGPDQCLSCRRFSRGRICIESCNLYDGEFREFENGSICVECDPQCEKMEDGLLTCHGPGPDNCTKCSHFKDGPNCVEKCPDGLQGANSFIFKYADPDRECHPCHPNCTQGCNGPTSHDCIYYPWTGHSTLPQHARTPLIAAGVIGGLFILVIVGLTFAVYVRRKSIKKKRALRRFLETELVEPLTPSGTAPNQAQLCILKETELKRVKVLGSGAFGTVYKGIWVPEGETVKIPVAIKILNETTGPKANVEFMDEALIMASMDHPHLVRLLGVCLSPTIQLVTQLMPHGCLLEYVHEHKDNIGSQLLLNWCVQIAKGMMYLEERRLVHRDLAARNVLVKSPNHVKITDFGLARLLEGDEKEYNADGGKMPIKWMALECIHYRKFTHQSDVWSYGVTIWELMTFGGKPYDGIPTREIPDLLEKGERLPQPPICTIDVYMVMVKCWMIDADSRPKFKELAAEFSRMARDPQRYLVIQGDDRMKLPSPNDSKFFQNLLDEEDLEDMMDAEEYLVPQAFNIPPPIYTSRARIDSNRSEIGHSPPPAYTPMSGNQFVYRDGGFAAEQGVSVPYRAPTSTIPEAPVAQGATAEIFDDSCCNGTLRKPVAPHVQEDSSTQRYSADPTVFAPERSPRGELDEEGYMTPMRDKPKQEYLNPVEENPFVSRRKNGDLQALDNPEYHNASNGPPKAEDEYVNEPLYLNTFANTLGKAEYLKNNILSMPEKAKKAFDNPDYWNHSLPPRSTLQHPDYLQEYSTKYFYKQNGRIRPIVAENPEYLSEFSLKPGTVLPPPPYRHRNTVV
UniProt O75460: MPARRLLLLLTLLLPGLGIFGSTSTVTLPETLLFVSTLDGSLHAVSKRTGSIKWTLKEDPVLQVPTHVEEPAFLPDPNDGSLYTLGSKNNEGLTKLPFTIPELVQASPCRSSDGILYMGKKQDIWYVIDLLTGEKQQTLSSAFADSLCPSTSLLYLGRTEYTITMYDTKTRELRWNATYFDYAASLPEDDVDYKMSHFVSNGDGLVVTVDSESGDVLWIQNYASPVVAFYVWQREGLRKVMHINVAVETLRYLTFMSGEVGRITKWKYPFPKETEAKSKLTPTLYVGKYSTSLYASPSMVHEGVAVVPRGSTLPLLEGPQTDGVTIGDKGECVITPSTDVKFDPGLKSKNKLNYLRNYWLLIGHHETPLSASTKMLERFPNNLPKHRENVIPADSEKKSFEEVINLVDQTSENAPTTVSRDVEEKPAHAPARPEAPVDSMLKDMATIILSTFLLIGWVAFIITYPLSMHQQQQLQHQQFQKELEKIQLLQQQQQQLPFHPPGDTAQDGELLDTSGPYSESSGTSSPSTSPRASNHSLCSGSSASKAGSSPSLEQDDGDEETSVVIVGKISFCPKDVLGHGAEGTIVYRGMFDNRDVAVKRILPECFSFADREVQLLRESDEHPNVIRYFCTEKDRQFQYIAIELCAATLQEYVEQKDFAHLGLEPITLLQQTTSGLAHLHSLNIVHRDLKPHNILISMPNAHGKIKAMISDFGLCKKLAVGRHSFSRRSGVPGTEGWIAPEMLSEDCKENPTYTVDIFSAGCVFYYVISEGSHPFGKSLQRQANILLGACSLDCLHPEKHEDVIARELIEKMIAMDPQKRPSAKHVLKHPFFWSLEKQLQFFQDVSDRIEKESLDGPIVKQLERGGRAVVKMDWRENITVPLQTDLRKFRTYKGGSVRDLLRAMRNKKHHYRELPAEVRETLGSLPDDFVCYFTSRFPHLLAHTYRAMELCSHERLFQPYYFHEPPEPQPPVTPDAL
UniProt P11362, whole entry, looked up: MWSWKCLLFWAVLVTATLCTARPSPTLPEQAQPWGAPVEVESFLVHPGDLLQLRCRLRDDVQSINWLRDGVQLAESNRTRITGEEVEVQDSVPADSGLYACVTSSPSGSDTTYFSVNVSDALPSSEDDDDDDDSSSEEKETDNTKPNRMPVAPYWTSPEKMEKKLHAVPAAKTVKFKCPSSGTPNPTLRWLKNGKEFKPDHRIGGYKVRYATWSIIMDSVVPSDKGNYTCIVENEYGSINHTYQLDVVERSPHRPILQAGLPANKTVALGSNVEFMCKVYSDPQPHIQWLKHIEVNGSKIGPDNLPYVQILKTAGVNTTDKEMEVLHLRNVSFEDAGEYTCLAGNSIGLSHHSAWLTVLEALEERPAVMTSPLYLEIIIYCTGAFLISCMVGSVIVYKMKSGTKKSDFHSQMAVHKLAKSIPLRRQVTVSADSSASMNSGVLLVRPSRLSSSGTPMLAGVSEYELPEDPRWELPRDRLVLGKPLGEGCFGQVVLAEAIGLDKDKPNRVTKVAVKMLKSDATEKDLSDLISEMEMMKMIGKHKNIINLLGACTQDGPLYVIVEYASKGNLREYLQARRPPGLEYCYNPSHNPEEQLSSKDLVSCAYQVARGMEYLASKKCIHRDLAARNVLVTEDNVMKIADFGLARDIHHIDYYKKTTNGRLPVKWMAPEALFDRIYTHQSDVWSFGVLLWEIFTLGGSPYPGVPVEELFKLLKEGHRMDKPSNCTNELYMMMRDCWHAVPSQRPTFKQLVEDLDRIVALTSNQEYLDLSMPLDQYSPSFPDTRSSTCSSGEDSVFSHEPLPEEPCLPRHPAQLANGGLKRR
UniProt P22607, whole entry, looked up: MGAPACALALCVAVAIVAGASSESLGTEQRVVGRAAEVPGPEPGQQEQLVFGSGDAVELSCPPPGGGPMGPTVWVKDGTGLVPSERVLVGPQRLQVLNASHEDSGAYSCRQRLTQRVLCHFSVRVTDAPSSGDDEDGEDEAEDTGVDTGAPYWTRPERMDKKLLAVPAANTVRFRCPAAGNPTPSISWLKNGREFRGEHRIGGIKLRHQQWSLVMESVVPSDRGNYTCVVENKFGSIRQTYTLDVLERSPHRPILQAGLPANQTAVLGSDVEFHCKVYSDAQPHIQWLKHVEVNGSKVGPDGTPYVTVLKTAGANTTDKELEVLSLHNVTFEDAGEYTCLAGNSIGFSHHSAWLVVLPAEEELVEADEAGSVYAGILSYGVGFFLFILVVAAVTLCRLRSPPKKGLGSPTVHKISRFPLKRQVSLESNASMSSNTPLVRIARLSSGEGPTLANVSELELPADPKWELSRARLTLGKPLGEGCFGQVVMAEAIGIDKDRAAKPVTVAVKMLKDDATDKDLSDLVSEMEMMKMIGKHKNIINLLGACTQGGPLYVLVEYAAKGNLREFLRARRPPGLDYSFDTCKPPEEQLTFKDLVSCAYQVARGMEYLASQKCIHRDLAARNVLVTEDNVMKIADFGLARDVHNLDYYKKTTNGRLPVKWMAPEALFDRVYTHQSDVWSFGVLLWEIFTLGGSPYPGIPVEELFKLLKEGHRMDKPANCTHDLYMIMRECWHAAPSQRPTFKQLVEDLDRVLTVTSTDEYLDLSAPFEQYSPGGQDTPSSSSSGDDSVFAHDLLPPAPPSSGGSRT
UniProt P36888, whole entry: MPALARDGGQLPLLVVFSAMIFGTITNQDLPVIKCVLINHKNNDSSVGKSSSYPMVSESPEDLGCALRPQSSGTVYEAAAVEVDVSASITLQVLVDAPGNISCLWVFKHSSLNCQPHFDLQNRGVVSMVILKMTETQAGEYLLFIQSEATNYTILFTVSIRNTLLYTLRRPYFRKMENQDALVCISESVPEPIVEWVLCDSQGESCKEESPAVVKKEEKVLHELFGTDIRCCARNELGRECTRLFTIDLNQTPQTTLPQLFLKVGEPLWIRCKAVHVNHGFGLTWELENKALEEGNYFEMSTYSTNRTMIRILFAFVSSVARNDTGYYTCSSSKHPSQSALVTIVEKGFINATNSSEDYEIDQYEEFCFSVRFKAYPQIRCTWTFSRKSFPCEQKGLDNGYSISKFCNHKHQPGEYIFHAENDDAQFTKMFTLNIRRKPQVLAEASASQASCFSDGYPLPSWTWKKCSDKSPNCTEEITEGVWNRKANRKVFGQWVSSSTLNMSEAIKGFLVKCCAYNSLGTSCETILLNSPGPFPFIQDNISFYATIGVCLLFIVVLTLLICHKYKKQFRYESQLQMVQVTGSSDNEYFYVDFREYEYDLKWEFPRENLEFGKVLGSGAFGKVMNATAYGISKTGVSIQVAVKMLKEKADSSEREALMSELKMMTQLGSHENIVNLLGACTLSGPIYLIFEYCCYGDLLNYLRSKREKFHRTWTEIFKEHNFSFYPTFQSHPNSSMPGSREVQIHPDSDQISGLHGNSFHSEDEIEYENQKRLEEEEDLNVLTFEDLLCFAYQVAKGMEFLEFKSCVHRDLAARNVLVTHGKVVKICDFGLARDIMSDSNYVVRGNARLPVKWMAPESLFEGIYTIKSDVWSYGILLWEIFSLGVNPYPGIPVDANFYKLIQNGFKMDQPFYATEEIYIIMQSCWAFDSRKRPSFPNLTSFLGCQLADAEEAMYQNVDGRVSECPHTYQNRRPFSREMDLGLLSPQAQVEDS
UniProt P06241, whole entry, looked up: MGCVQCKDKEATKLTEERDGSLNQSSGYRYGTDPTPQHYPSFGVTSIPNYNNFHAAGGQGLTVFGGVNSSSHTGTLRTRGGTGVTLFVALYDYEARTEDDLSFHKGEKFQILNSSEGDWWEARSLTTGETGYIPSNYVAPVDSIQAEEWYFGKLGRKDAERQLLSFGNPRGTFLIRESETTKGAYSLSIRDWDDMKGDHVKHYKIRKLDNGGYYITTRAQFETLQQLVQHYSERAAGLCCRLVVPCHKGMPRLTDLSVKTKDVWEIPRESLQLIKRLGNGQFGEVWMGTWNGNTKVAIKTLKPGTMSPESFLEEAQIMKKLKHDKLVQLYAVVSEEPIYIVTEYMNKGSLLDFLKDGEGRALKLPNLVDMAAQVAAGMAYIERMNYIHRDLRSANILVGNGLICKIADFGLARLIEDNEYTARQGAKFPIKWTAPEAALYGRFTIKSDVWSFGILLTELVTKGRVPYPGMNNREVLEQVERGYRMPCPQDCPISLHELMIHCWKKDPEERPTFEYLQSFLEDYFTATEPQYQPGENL
UniProt P49840: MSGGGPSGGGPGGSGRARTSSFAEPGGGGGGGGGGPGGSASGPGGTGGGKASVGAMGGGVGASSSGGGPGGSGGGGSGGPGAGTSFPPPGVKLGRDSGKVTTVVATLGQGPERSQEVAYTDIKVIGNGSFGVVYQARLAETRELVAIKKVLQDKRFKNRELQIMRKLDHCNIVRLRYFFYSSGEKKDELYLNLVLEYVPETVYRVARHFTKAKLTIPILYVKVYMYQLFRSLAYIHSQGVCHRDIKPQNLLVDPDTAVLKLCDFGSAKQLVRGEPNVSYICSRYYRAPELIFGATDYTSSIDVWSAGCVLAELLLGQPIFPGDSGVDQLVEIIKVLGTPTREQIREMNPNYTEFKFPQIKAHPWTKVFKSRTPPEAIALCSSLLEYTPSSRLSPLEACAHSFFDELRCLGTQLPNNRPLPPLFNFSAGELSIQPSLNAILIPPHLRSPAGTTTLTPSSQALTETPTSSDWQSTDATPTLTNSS
UniProt Q9Y616: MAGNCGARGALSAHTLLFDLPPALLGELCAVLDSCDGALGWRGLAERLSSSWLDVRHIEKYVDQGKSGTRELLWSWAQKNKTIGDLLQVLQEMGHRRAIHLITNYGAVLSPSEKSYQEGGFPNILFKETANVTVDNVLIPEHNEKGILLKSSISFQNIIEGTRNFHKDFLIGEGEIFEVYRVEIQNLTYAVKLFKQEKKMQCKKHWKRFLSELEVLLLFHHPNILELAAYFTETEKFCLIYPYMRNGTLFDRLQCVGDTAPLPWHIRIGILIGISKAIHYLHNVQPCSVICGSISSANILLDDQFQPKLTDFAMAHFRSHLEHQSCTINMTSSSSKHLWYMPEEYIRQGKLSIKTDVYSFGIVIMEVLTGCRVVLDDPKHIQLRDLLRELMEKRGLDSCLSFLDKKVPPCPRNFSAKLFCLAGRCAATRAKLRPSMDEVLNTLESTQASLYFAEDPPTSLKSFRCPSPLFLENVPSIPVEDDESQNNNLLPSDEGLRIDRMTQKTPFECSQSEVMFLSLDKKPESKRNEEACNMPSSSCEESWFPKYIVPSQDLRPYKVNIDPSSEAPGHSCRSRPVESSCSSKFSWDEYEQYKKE

Columns and labels:
Assay in all cases: number of time points (of 5) at which kinase-Nluc abundance scored as decreased, DMSO-normalised (count); higher = more persistent destabilization
Settings in all cases: K562; 2-18 h
[1] = target: EGFR_L861Q (UniProt P00533)
[2] = target: EGFR_T790M (UniProt P00533)
[3] = target: EPHA2 (UniProt P29317)
[4] = target: ERBB3 (UniProt P21860)
[5] = target: ERBB4_R711C (clone: ERBB4_mut) (UniProt Q15303)
[6] = target: ERN1 (UniProt O75460)
[7] = target: FGFR1 (UniProt P11362)
[8] = target: FGFR2 (UniProt P21802)
[9] = target: FGFR3 (UniProt P22607)
[10] = target: FGR (UniProt P09769)
[11] = target: FLT3 (UniProt P36888)
[12] = target: FYN (UniProt P06241)
[13] = target: GSK3A (UniProt P49840)
[14] = target: HER2 (UniProt P04626)
[15] = target: INSRR (UniProt P14616)
[16] = target: IRAK3 (UniProt Q9Y616)
[17] = target: JAK1 (UniProt P23458)
[18] = target: LCK (UniProt P06239)
[19] = target: LIMK1 (UniProt P53667)
[20] = target: LIMK2 (UniProt P53671)

Measured: number of time points

CC(C)c1cc(/C=C(\C#N)C(N)=O)cc(C(C)C)c1O (10 µM)
0: all assays above

COc1c(C)c(C(=O)c2ccc(N)c(C(=O)O)c2)n2ccccc12 (10 µM)
0: all assays above

O=C(CO)N1CCC(c2n[nH]c(-c3ccc(Cl)cc3)c2-c2ccncn2)CC1 (10 µM)
0: all assays above

CCCCCCCC/C=C\CCCCCCCC(=O)NCC(=O)O [N-Oleoyl glycine] (10 µM)
0: all assays above

CNC(=O)c1cc(Oc2ccc3nc(N[C@@H]4CCCC[C@H]4O)sc3c2)ccn1 (10 µM)
0: all assays above

C[C@@H]1C[C@H]2O[C@@]3(O[C@@H]2C(C)(C)O)[C@H](O)[C@@]2(C)[C@@H]4CC[C@H]5C(C)(C)[C@@H](O[C@@H]6OC[C@H](O)[C@H](O)[C@H]6O)CC[C@@]56C[C@@]46CC[C@]2(C)[C@@H]13 [Cimiracemoside C] (10 µM)
0: all assays above

CC[C@@H]1C(=O)N(C)c2cnc(Nc3ccc(C(=O)N[C@H]4CC[C@H](N5CCN(CC6CC6)CC5)CC4)cc3OC)nc2N1C(C)C [Volasertib] (2.5 µM)
1: [1] | [5] | [15]
0: all other assays above

CC(CCc1ccccn1)(CCc1ccccn1)C(=O)c1ccccc1 (10 µM)
0: all assays above

O[C@H]1CC[C@H](Nc2ncc3nc(Nc4c(F)cc(F)cc4F)n([C@H]4CCOC4)c3n2)CC1 [Tanzisertib] (10 µM)
0: all assays above

Cc1cc(Nc2cc(CN3CCOCC3)c3nc(C)c(Cc4ccc(Cl)cc4F)n3n2)n[nH]1 [Gandotinib] (2.5 µM)
0: all assays above

O=C(Nc1cccc(-c2nncn2C2CC2)c1)c1cc(-n2cnc(C3CC3)c2)ccn1 (10 µM)
1: [7]
0: all other assays above

Cn1cc(-c2ccc(F)c(C(F)(F)F)c2)nc1C1CCN(c2ncnc3[nH]ncc23)CC1 (10 µM)
0: all assays above

CC(=O)Nc1nc(C)c(-c2nc(N3CCCC(O)C3)no2)s1 (stereo not given) (10 µM)
0: all assays above

CC(C)(O)[C@@H]1CC[C@](C)([C@H]2[C@@H](O)C[C@@]3(C)[C@@H]4C[C@H](O[C@@H]5O[C@H](CO)[C@@H](O)[C@H](O)[C@H]5O)[C@H]5C(C)(C)[C@@H](O[C@@H]6OC[C@@H](O)[C@H](O)[C@H]6O[C@@H]6O[C@H](CO)[C@@H](O)[C@H](O)[C@H]6O)CC[C@@]56C[C@@]46CC[C@]23C)O1 [Astragaloside VI] (10 µM)
0: all assays above

CC1=C(CC(=O)O)c2cc(F)ccc2/C1=C\c1ccc(C(C)C)cc1 (10 µM)
0: all assays above

CCN(C)C(=O)c1ccc2c(C(=Nc3ccc(CN4CCCCC4)cc3)c3ccccc3)c(O)[nH]c2c1 (2.5 µM)
0: all assays above

COc1nc(-c2cccc3c2OCCO3)ccc1Nc1ccc(CN(C)C)cc1 [RAS inhibitor Abd-7] (10 µM)
0: all assays above

CCOc1ccccc1C=C1C(=O)Nc2ccccc21 (10 µM)
1: [8] | [17]
2: [5]
0: all other assays above

COC1(C(=O)N[C@@H](C)c2ccc(-n3cc(F)cn3)nc2)CCC(c2nc(C)cc(Nc3cc(C)[nH]n3)n2)CC1 (stereo partly drawn) [trans-Pralsetinib] (2.5 µM)
0: all assays above

NCCCCCCNS(=O)(=O)c1cccc2c(Cl)cccc12 [W-7 (hydrochloride)] (10 µM)
0: all assays above

COc1ccc2c(Oc3ccc(NC(=O)c4c(C)n(CC(C)(C)O)n(-c5ccccc5)c4=O)cc3F)ccnc2c1 (2.5 µM)
2: [5] | [15]
1: [1] | [8]
3: [4]
0: all other assays above

Cc1nc(NC(=O)NCCc2nnn(CCF)n2)sc1-c1ccc(S(C)(=O)=O)c(F)c1 (10 µM)
0: all assays above

CC(C)Oc1ccc(-c2cnc3c(-c4ccnc5ccccc45)cnn3c2)cc1 (10 µM)
0: all assays above

Nc1cc(C(F)(F)F)c(-c2nc(N3CCOCC3)nc(N3CCOCC3)n2)cn1 [Bimiralisib] (10 µM)
1: [20]
2: [1] | [8] | [9] | [11] | [14] | [16]
4: [5] | [19]
3: [12]
0: all other assays above

NC(=O)c1ccc(-c2cnn3ccc(NCc4cccnc4)nc23)cc1 (2.5 µM)
0: all assays above

CCOc1c([C@H](C)n2nc(C)c3c(N)ncnc32)cc(Cl)c(F)c1[C@@H]1CNC(=O)C1 [Parsaclisib (hydrochloride)] (10 µM)
0: all assays above

O=C(O)c1ccc(-c2c[nH]c3ncc(-c4ccccc4)cc23)cc1C1CCCC1 (2.5 µM)
3: [12]
0: all other assays above

CC(C)c1ccc(CC(=O)N2CCN(c3ccc(C#N)nn3)CC2)cc1 (10 µM)
0: all assays above

C=CC(=O)N1CCC[C@@H](n2nc(C(=O)Nc3ccc(CC(=O)N(C)C)c(C)c3C)c3c(N)ncnc32)C1 (10 µM)
0: all assays above

C[C@@H]1CCc2ncc(F)cc2[C@H]2CCCN2c2ccn3ncc(c3n2)C(=O)N1 [Selitrectinib] (10 µM)
0: all assays above

CCc1ccc(C(=O)COc2ccc(CC3SC(=O)NC3=O)cc2)nc1 (stereo not given) (10 µM)
0: all assays above

C=CC(=O)Nc1cccc(-n2c(=O)cc(C)c3cnc(Nc4ccc(OCCN(C)C)cc4OC)nc32)c1 (10 µM)
2: [14]
1: [5]
0: all other assays above

CN1C(=O)NC(Cc2c[nH]c3c(Cl)cccc23)C1=O (racemic) [Necrostatin 2 (racemate)] (10 µM)
0: all assays above

COC(=O)[C@@]1(C)CC[C@]2(C(=O)O)CC[C@]3(C)C(=CC[C@@H]4[C@@]5(C)C[C@H](O)[C@H](O[C@@H]6OC[C@@H](O[C@@H]7O[C@H](CO)[C@@H](O)[C@H](O)[C@H]7O)[C@H](O)[C@H]6O)[C@@](C)(CO)[C@@H]5CC[C@]43C)[C@@H]2C1 [Esculentoside A] (10 µM)
0: all assays above

O=C1NCCCc2c1oc1ccc(O)cc21 (10 µM)
0: all assays above

O=C1NC(=O)C(c2cn(-c3ccccc3)nc2-c2ccc(F)cc2)N1 (stereo not given) (10 µM)
1: [15]
0: all other assays above

CC1(COc2ccc3c(c2)ncn3-c2ccc3cccc(N4CCC(N)CC4)c3n2)COC1 [Crenolanib] (2.5 µM)
3: [12] | [16]
1: [9]
2: [15]
0: all other assays above

C[C@H]1Cc2ccccc2N1C(=O)Cc1nc(N2CCOCC2)cc(=O)[nH]1 (2.5 µM)
0: all assays above

CC(=O)Nc1nc2ccc(-c3cnc(C)c(NC(=O)OC4CCCCC4)c3)cc2s1 (10 µM)
0: all assays above

CC1=C(C(=O)Nc2ccc3[nH]ncc3c2)C(c2ccc(F)cc2)NC(=O)N1 (stereo not given) (10 µM)
0: all assays above

C[C@@H]1O[C@@H](OC[C@H]2O[C@@H](Oc3cc(O)c4c(c3)O[C@H](c3ccc(O)cc3)CC4=O)[C@H](O)[C@@H](O)[C@@H]2O)[C@H](O)[C@H](O)[C@H]1O [Narirutin] (10 µM)
0: all assays above

N#Cc1ccc(-c2c(-c3ncn[nH]3)sc(N3CCOCC3)c2C#N)c(F)c1 (10 µM)
1: [19]
0: all other assays above

[O-][n+]1cccc(-c2nc3c(Cl)cccc3cc2[C@@H](Nc2ncnc3cccnc23)C(F)(F)F)c1 [Seletalisib] (10 µM)
0: all assays above

O=C(O)CCc1ccc(NCc2cccc(Oc3ccccc3)c2)cc1 (10 µM)
0: all assays above

For convenience, 2 of the compounds above:
C[C@@H]1O[C@@H](OC[C@H]2O[C@@H](Oc3cc(O)c4c(c3)O[C@H](c3ccc(O)cc3)CC4=O)[C@H](O)[C@@H](O)[C@@H]2O)[C@H](O)[C@H](O)[C@H]1O [Narirutin] (10 µM)
0: all assays above

N#Cc1ccc(-c2c(-c3ncn[nH]3)sc(N3CCOCC3)c2C#N)c(F)c1 (10 µM)
1: [19]
0: all other assays above

Further structures.

C=C[C@H]1[C@H](O[C@@H]2O[C@H](CO)[C@@H](O)[C@H](O)[C@H]2OC(=O)c2c(O)cc(O)cc2-c2cccc(O)c2)OC=C2C(=O)OCC[C@H]21 [Amarogentin] (10 µM)
0: all assays above

Nc1n[nH]c2cc(-c3ccc(=O)n(Cc4cccc(Cl)c4)c3)ccc12 (10 µM)
0: all assays above

O=C1NC(=O)C(=Cc2ccc3c(c2)OCO3)S1 (10 µM)
0: all assays above
